Drawing on patent US20150074844A1, this text covers binding for one substance.

Chains of the proteins cited; added tags and fusions are not shown. Lines headed by an entry give the natural chain unless they say otherwise; changes in a name come on top.
UniProt P49597: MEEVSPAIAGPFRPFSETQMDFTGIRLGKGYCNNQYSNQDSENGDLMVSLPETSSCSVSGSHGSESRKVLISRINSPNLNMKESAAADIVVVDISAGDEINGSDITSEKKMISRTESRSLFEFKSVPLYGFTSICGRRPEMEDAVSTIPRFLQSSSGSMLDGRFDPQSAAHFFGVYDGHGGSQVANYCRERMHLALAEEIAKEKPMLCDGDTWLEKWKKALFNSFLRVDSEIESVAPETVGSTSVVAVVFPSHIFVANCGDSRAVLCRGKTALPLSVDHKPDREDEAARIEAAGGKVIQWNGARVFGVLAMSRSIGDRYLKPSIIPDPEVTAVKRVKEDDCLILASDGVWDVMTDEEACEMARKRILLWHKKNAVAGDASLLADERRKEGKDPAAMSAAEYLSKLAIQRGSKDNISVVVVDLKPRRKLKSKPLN
UniProt O49686: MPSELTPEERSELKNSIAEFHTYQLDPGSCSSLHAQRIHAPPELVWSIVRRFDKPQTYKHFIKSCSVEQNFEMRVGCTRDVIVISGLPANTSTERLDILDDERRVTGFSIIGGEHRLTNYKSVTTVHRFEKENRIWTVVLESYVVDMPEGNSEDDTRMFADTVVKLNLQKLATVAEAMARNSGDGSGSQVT

This assay has as its target ABI1 without tag (purified recombinant) (Arabidopsis) (UniProt P49597). The assay is described as follows: His pull-down of purified recombinant proteins, SDS-PAGE/Coomassie; ABA-dependent.

No constants are given. Whether binding was seen depends on the method and setting. Binding seen in cells or lysates may run through a third protein. Some results given as binding are weak or reduced against the parent protein; the word gives no strength.

In the case of “His-tagged PYR1 (from UniProt O49686 1-191) (receptor)”, the binding result was “binds”.
